Laboratory results as given in publication PMC11881497.
The exact form of at least one protein or probe is not confirmed. Tags and fusion partners may be left off the protein sequences shown.

Molecular target: T1, WRKY40 (UniProt A0A7S5EBG7)
T1 sequence (looked up, limits assumed): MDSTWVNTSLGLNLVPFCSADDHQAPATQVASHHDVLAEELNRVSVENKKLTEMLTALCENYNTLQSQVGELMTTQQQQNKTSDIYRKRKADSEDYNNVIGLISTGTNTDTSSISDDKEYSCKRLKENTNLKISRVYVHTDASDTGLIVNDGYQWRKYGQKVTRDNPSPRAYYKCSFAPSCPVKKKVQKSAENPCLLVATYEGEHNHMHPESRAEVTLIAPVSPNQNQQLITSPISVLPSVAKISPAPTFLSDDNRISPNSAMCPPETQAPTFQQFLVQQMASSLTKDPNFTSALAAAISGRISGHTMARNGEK
Assay: EMSA
Details: cold competitor reduces binding; EMSA: oligos diluted in ddH2O, 60 min at 25 °C with protein; 6% native PAGE, 0.5x TBE, 4 °C, 100 V; binding buffer, salt and pH not stated; recombinant protein; label: biotin 5' and 3'

ACAATTCACTCTTGACTTCCAGATAGACTTT (double strand) [LRRpro W-box probe]
binding result: binds
